{"source": "the supplement of paper PMC12067093", "about": "“Discovery and optimisation of a covalent ligand for TRIM25 and its application to targeted protein ubiquitination” (Chemical Science, 2025)", "compound": "Cc1cc(ccc1-c1ccccc1)C(=O)N1CCCN(CC1)C(=O)CCl [compound 10]", "assay": "probe-labelled cysteine peptide fold change vs DMSO (competition) (log2 fold change); higher = less target engagement (more negative = stronger competition)", "settings": "THP-1, incubation time: 4 h", "note": "This is one part of the list.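 Further: competitive profiling in live THP-1 cells: cysteine peptides tagged with an iodoacetamide desthiobiotin (IA-DTB) probe, intensity after compound treatment relative to DMSO-treated cells.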", "data": [{"target": "DUS1L_Q6P1R4_169_AGCQLLTVHGR (UniProt Q6P1R4)", "values": [{"measurement": "probe-labelled cysteine peptide fold change", "setting": "10 µM", "result": -0.066}, {"measurement": "probe-labelled cysteine peptide fold change", "setting": "50 µM", "result": -0.0896}]}, {"target": "DNPH1_O43598_117_ILCLFRPQSGR (UniProt O43598)", "values": [{"measurement": "probe-labelled cysteine peptide fold change", "setting": "10 µM", "result": -0.207}, {"measurement": "probe-labelled cysteine peptide fold change", "setting": "50 µM", "result": -0.0582}]}, {"target": "DYNC1H1_Q14204_4216_SACDTVDTWLDDTAK (UniProt Q14204)", "values": [{"measurement": "probe-labelled cysteine peptide fold change", "setting": "10 µM", "result": 0.0448}, {"measurement": "probe-labelled cysteine peptide fold change", "setting": "50 µM", "result": 0.0655}]}, {"target": "EAPP_Q56P03_210_AMFVMNCSINK (UniProt Q56P03)", "values": [{"measurement": "probe-labelled cysteine peptide fold change", "setting": "10 µM", "result": 0.184}, {"measurement": "probe-labelled cysteine peptide fold change", "setting": "50 µM", "result": 0.185}]}, {"target": "DPYSL2_Q16555_504_GLYDGPVCEVSVTPK (UniProt Q16555)", "values": [{"measurement": "probe-labelled cysteine peptide fold change", "setting": "10 µM", "result": -0.0101}, {"measurement": "probe-labelled cysteine peptide fold change", "setting": "50 µM", "result": -0.0861}]}, {"target": "DPP7_Q9UHL4_332+338_LYHSCADPTGCGTGPDAR (UniProt Q9UHL4)", "values": [{"measurement": "probe-labelled cysteine peptide fold change", "setting": "10 µM", "result": 0.00325}, {"measurement": "probe-labelled cysteine peptide fold change", "setting": "50 µM", "result": 0.329}]}, {"target": "DTWD2_Q8NBA8_252_NNYIQETLLRPLQALCSFQLQHGAQIR (UniProt Q8NBA8)", "values": [{"measurement": "probe-labelled cysteine peptide fold change", "setting": "10 µM", "result": -0.431}, {"measurement": "probe-labelled cysteine peptide fold change", "setting": "50 µM", "result": -0.358}]}, {"target": "DNMT3A_Q9Y6K1_911_EYFACV (UniProt Q9Y6K1)", "values": [{"measurement": "probe-labelled cysteine peptide fold change", "setting": "10 µM", "result": -0.244}, {"measurement": "probe-labelled cysteine peptide fold change", "setting": "50 µM", "result": -0.0631}]}, {"target": "DYNLT1_P63172_93_NGAGLHTASSCFWDSSTDGSCTVR (UniProt P63172)", "values": [{"measurement": "probe-labelled cysteine peptide fold change", "setting": "10 µM", "result": 0.128}, {"measurement": "probe-labelled cysteine peptide fold change", "setting": "50 µM", "result": 0.408}]}, {"target": "DOK3_Q7L591_282_CHSGEGLFAFSTPCAPDLCR (UniProt Q7L591)", "values": [{"measurement": "probe-labelled cysteine peptide fold change", "setting": "10 µM", "result": 0.237}, {"measurement": "probe-labelled cysteine peptide fold change", "setting": "50 µM", "result": -0.296}]}, {"target": "DOK3_Q7L591_323_LPELTRPQPCPLPR (UniProt Q7L591)", "values": [{"measurement": "probe-labelled cysteine peptide fold change", "setting": "10 µM", "result": 0.54}, {"measurement": "probe-labelled cysteine peptide fold change", "setting": "50 µM", "result": 0.45}]}, {"target": "DYNLT1_P63172_83_NGAGLHTASSCFWDSSTDGSCTVR (UniProt P63172)", "values": [{"measurement": "probe-labelled cysteine peptide fold change", "setting": "10 µM", "result": 0.0463}, {"measurement": "probe-labelled cysteine peptide fold change", "setting": "50 µM", "result": 0.113}]}, {"target": "DPP8_Q6V1X1_286_YSGYWWCPK (UniProt Q6V1X1)", "values": [{"measurement": "probe-labelled cysteine peptide fold change", "setting": "10 µM", "result": 0.111}, {"measurement": "probe-labelled cysteine peptide fold change", "setting": "50 µM", "result": 0.217}]}, {"target": "EAF1_Q96JC9_86_DCVLIINHDTGEYVLEK (UniProt Q96JC9)", "values": [{"measurement": "probe-labelled cysteine peptide fold change", "setting": "10 µM", "result": -0.176}, {"measurement": "probe-labelled cysteine peptide fold change", "setting": "50 µM", "result": -0.0777}]}, {"target": "DTX3L_Q8TDB6_219_DSCISPSEPETK (UniProt Q8TDB6)", "values": [{"measurement": "probe-labelled cysteine peptide fold change", "setting": "10 µM", "result": -0.446}, {"measurement": "probe-labelled cysteine peptide fold change", "setting": "50 µM", "result": -0.672}]}, {"target": "ECD_O95905_267_CLYAQLVQQR (UniProt O95905)", "values": [{"measurement": "probe-labelled cysteine peptide fold change", "setting": "10 µM", "result": -0.209}, {"measurement": "probe-labelled cysteine peptide fold change", "setting": "50 µM", "result": -0.591}]}, {"target": "EARS2_Q5JPH6_140_TGAAYPCFCSPQR (UniProt Q5JPH6)", "values": [{"measurement": "probe-labelled cysteine peptide fold change", "setting": "10 µM", "result": 0.0297}, {"measurement": "probe-labelled cysteine peptide fold change", "setting": "50 µM", "result": -0.313}]}, {"target": "DOCK8_Q8NF50_846_NCLLASYVHYVFR (UniProt Q8NF50)", "values": [{"measurement": "probe-labelled cysteine peptide fold change", "setting": "10 µM", "result": 0.0162}, {"measurement": "probe-labelled cysteine peptide fold change", "setting": "50 µM", "result": 0.428}]}, {"target": "ECH1_Q13011_159+171+182_CPKPVIAAVHGGCIGGGVDLVTACDIR (UniProt Q13011)", "values": [{"measurement": "probe-labelled cysteine peptide fold change", "setting": "10 µM", "result": 0.25}, {"measurement": "probe-labelled cysteine peptide fold change", "setting": "50 µM", "result": -0.263}]}, {"target": "ECH1_Q13011_92_EMVECFNK (UniProt Q13011)", "values": [{"measurement": "probe-labelled cysteine peptide fold change", "setting": "10 µM", "result": 0.215}, {"measurement": "probe-labelled cysteine peptide fold change", "setting": "50 µM", "result": 0.062}]}, {"target": "DOCK8_Q8NF50_685_LQTGSYCLPVALEK (UniProt Q8NF50)", "values": [{"measurement": "probe-labelled cysteine peptide fold change", "setting": "10 µM", "result": 0.0571}, {"measurement": "probe-labelled cysteine peptide fold change", "setting": "50 µM", "result": 0.0366}]}, {"target": "DYNC1H1_Q14204_3089_CVLNWFGDWSTEALYQVGK (UniProt Q14204)", "values": [{"measurement": "probe-labelled cysteine peptide fold change", "setting": "10 µM", "result": -0.146}, {"measurement": "probe-labelled cysteine peptide fold change", "setting": "50 µM", "result": -0.142}]}, {"target": "DPH7_Q9BTV6_377_GASELPTPCHECR (UniProt Q9BTV6)", "values": [{"measurement": "probe-labelled cysteine peptide fold change", "setting": "10 µM", "result": 0.0426}, {"measurement": "probe-labelled cysteine peptide fold change", "setting": "50 µM", "result": -0.0466}]}, {"target": "DYNC1H1_Q14204_2712_IQFVGACNPPTDPGRK (UniProt Q14204)", "values": [{"measurement": "probe-labelled cysteine peptide fold change", "setting": "10 µM", "result": 0.032}, {"measurement": "probe-labelled cysteine peptide fold change", "setting": "50 µM", "result": 0.353}]}, {"target": "DPYSL2_Q16555_133_SCCDYSLHVDISEWHK (UniProt Q16555)", "values": [{"measurement": "probe-labelled cysteine peptide fold change", "setting": "10 µM", "result": 0.0779}, {"measurement": "probe-labelled cysteine peptide fold change", "setting": "50 µM", "result": -0.285}]}, {"target": "DTNBP1_Q96EV8_302_AKPPSSSSTCTDSATR (UniProt Q96EV8)", "values": [{"measurement": "probe-labelled cysteine peptide fold change", "setting": "10 µM", "result": 0.109}, {"measurement": "probe-labelled cysteine peptide fold change", "setting": "50 µM", "result": -0.201}]}, {"target": "DUSP23_Q9BVJ7_108_TGTMLACYLVK (UniProt Q9BVJ7)", "values": [{"measurement": "probe-labelled cysteine peptide fold change", "setting": "10 µM", "result": 0.275}, {"measurement": "probe-labelled cysteine peptide fold change", "setting": "50 µM", "result": -0.205}]}, {"target": "DUT_P33316_222_IAQLICER (UniProt P33316)", "values": [{"measurement": "probe-labelled cysteine peptide fold change", "setting": "10 µM", "result": 0.187}, {"measurement": "probe-labelled cysteine peptide fold change", "setting": "50 µM", "result": 0.000299}]}, {"target": "DUSP28_Q4G0W2_86_VPVFDDPAEDLLAHLEPTCAAMEAAVR (UniProt Q4G0W2)", "values": [{"measurement": "probe-labelled cysteine peptide fold change", "setting": "10 µM", "result": -0.0489}, {"measurement": "probe-labelled cysteine peptide fold change", "setting": "50 µM", "result": 0.0262}]}, {"target": "DOCK11_Q5JSL3_1190_DTLYSCAAMPNSASR (UniProt Q5JSL3)", "values": [{"measurement": "probe-labelled cysteine peptide fold change", "setting": "10 µM", "result": -0.449}, {"measurement": "probe-labelled cysteine peptide fold change", "setting": "50 µM", "result": -1.02}]}, {"target": "EBNA1BP2_Q99848_56_QCLAEFKR (UniProt Q99848)", "values": [{"measurement": "probe-labelled cysteine peptide fold change", "setting": "10 µM", "result": 0.143}, {"measurement": "probe-labelled cysteine peptide fold change", "setting": "50 µM", "result": -0.192}]}, {"target": "DYNC1I2_Q13409_386_TPLSAAAHTHPVYCVNVVGTQNAHNLISISTDGK (UniProt Q13409)", "values": [{"measurement": "probe-labelled cysteine peptide fold change", "setting": "10 µM", "result": 0.33}, {"measurement": "probe-labelled cysteine peptide fold change", "setting": "50 µM", "result": 0.14}]}, {"target": "DYRK1A_Q13627_551_HSGGHFTAAVQAMDCETHSPQVR (UniProt Q13627)", "values": [{"measurement": "probe-labelled cysteine peptide fold change", "setting": "10 µM", "result": -0.0245}, {"measurement": "probe-labelled cysteine peptide fold change", "setting": "50 µM", "result": -0.265}]}, {"target": "DYNC1I2_Q13409_331_TTPEYVFHCQSAVMSATFAK (UniProt Q13409)", "values": [{"measurement": "probe-labelled cysteine peptide fold change", "setting": "10 µM", "result": 0.091}, {"measurement": "probe-labelled cysteine peptide fold change", "setting": "50 µM", "result": 0.418}]}, {"target": "DOK1_Q99704_389_DAWWCQAR (UniProt Q99704)", "values": [{"measurement": "probe-labelled cysteine peptide fold change", "setting": "10 µM", "result": -0.138}, {"measurement": "probe-labelled cysteine peptide fold change", "setting": "50 µM", "result": -0.519}]}, {"target": "DUS3L_Q96G46_396_TVEVDFVDINVGCPIDLVYKK (UniProt Q96G46)", "values": [{"measurement": "probe-labelled cysteine peptide fold change", "setting": "10 µM", "result": -0.0199}, {"measurement": "probe-labelled cysteine peptide fold change", "setting": "50 µM", "result": -0.405}]}, {"target": "DOCK2_Q92608_1655_QMSIISLASMNSDCSTPSKPTSESFDLELASPK (UniProt Q92608)", "values": [{"measurement": "probe-labelled cysteine peptide fold change", "setting": "10 µM", "result": -0.303}, {"measurement": "probe-labelled cysteine peptide fold change", "setting": "50 µM", "result": -0.0629}]}]}
